Measurements as given in patent US20220153790A1 (TECHNISCHE UNIVERSIT T M NCHEN, published 2022).
Residue numbers refer to the chain shown, from its start. Results are given in words; binding and its absence hold for the method and conditions named. Some entries that bind do so weakly or less than the wild type. One block for each binder: values may come before it.

Amino acid sequences for entries named in this document (tags omitted). A change or cut given only in a name is not applied to a line headed by its entry.
UniProt P08195: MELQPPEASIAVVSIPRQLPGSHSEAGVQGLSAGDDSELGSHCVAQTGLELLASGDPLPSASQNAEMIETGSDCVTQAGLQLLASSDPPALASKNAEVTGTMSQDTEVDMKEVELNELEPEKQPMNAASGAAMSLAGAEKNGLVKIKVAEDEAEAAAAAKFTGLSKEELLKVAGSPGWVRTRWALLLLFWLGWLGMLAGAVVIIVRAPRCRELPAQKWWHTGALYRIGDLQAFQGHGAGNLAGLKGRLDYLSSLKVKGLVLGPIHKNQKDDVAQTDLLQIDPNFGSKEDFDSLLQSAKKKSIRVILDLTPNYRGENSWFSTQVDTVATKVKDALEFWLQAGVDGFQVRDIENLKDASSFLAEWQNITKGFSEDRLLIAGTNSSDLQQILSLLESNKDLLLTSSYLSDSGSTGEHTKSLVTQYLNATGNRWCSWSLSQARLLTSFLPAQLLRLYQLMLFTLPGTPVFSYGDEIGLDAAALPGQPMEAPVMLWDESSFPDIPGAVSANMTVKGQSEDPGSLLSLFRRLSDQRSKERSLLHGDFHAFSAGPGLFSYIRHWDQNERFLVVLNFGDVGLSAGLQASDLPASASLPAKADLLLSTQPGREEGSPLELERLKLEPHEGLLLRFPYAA

Key:
[1] = biological target: hCD98hcED with N-terminal Strep-tag II (variant for crystallization) (human) (UniProt P08195); test: size exclusion chromatography of the 1:1 complex and crystal structure
[2] = biological target: hCD98hcED with N-terminal Strep-tag II (variant for crystallization) (human) (UniProt P08195); test: size exclusion chromatography of the 1:1 mixture
[3] = biological target: native human CD98hc on human cancer cell lines (human) (UniProt P08195); test: immunofluorescence microscopy, 1 µM conjugate
[4] = biological target: native human CD98hc on human cancer cell lines (human) (UniProt P08195); test: cytofluorometry and immunofluorescence microscopy
[5] = biological target: native human CD98hc on human cancer cell lines (human) (UniProt P08195); test: flow cytometry on SU-DHL-4, Raji, Ramos, DU-145, PC-3 and Caco-2 cells, 1 µM conjugate
[6] = biological target: native human CD98hc on human cancer cell lines (human) (UniProt P08195); test: flow cytometry of human cancer cell lines with 1 µM D11vs-PAS200-Cy5.5
[7] = biological target: native human CD98hc on human cancer cell lines (human) (UniProt P08195); test: competition with D11vs-PAS200-Cy5.5 on cells, 10-fold molar excess, flow cytometry and microscopy

- binding [1]: binds
- binding [2]: binds
B1: lipocalin variant P3D11 (designed binder)
chain: QDSTSDLIPAPPLSKVPLQQNFQDNQFHGKWYVVGRAGNTGLREDKDPGKMFATIYELKEDKSYNVTYVWFGQKKCMYSIGTFVPGSQPGEFTLGNIKSAPGRTSWLVRVVSTNYNQHAMVFFKSVTQNREGFAITLYGRTKELTSELKENFIRFSKSLGLPENHIVFPVPIDQCIDG
notes: produced soluble in E. coli JM83, monomeric; also called Anticalin P3D11; not shown: C-terminal His6-tag (plasmid pNGAL118)

- binding [3]: binds
- binding [4]: binds
- binding [5]: binds
- binding [6]: binds
B2: D11vs-PAS200-Cy5.5 (designed binder)
chain: B1 chain with F71S, G81V
modifications: Sulfo-Cyanine5.5 coupled by maleimide chemistry to the engineered C-terminal Cys
notes: also called Cy5.5 labeled PASylated D11vs; Cy5.5-labeled D11vs-PAS200; not shown: C-terminal PAS200 polypeptide (200 Pro, Ala and Ser residues) with an engineered Cys at its end

- binding [7]: binds
B3: D11vs-PAS200 (designed binder, not shown: small tags and cut ends)
chain: B1 chain with F71S, G81V
